Laboratory results as given in the supplement of paper PMC8728848.
The other results are listed elsewhere or left out.

Assays:
Test in all cases: glycan array binding signal (z-score within array); higher = stronger binding
Details in all cases: glycan notation: IUPAC condensed, linker removed
[1] = biological target: Fuc(a1-3)[Gal3S(b1-4)]GlcNAc6S
Procedure, shortened: (§1)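 Arrays were curated from the Consortium for Functional Glycomics database, 3228 in total, and kept only where the protein sequence was available. Binding is expressed as a within-array Z-score. This score was averaged across arrays of the same protein sequence at different concentrations or buffers and across linkers, and negative values can be read as non-binding.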

[2] = biological target: Fuc(a1-3)[GalNAc(b1-4)]GlcNAc
Procedure, shortened: as §1

[3] = biological target: Fuc(a1-3)[GalNAc(b1-4)]GlcNAc6S
Procedure, shortened: as §1

Fuc(a1-4)GlcNAc = biological target: Fuc(a1-4)GlcNAc
Procedure, shortened: as §1

Fuc(b1-3)GlcNAc = biological target: Fuc(b1-3)GlcNAc
Procedure, shortened: as §1

Gal(a1-2)Gal = biological target: Gal(a1-2)Gal
Procedure, shortened: as §1

Gal(a1-3)Gal = biological target: Gal(a1-3)Gal
Procedure, shortened: as §1

Gal(a1-3)Gal(b1-3)GlcNAc = biological target: Gal(a1-3)Gal(b1-3)GlcNAc
Procedure, shortened: as §1

[4] = biological target: Gal(a1-3)Gal(b1-3)GlcNAc(b1-2)Man
Procedure, shortened: as §1

[5] = biological target: Gal(a1-3)Gal(b1-3)GlcNAc(b1-2)Man(a1-3)[Gal(a1-3)Gal(b1-3)GlcNAc(b1-2)Man(a1-6)]Man(b1-4)GlcNAc(b1-4)GlcNAc
Procedure, shortened: as §1

[6] = biological target: Gal(a1-3)Gal(b1-3)GlcNAc(b1-3)GalNAc
Procedure, shortened: as §1

[7] = biological target: Gal(a1-3)Gal(b1-3)GlcNAc(b1-6)GalNAc
Procedure, shortened: as §1

[8] = biological target: Gal(a1-3)Gal(b1-3)[Fuc(a1-4)]GlcNAc(b1-2)Man(a1-3)[Gal(a1-3)Gal(b1-3)[Fuc(a1-4)]GlcNAc(b1-2)Man(a1-6)]Man(b1-4)GlcNAc(b1-4)GlcNAc
Procedure, shortened: as §1

Gal(a1-3)Gal(b1-4)Glc = biological target: Gal(a1-3)Gal(b1-4)Glc
Procedure, shortened: as §1

Gal(a1-3)Gal(b1-4)GlcNAc = biological target: Gal(a1-3)Gal(b1-4)GlcNAc
Procedure, shortened: as §1

[9] = biological target: Gal(a1-3)Gal(b1-4)GlcNAc(b1-2)Man
Procedure, shortened: as §1

[10] = biological target: Gal(a1-3)Gal(b1-4)GlcNAc(b1-2)Man(a1-3)[Gal(a1-3)Gal(b1-4)GlcNAc(b1-2)Man(a1-6)]Man(b1-4)GlcNAc(b1-4)GlcNAc
Procedure, shortened: as §1

[11] = biological target: Gal(a1-3)Gal(b1-4)GlcNAc(b1-3)GalNAc
Procedure, shortened: as §1

[12] = biological target: Gal(a1-3)Gal(b1-4)GlcNAc(b1-6)GalNAc
Procedure, shortened: as §1

[13] = biological target: Gal(a1-3)Gal(b1-4)[Fuc(a1-3)]GlcNAc
Procedure, shortened: as §1

[14] = biological target: Gal(a1-3)Gal(b1-4)[Fuc(a1-3)]GlcNAc(b1-2)Man(a1-3)[Gal(a1-3)Gal(b1-4)[Fuc(a1-3)]GlcNAc(b1-2)Man(a1-6)]Man(b1-4)GlcNAc(b1-4)GlcNAc
Procedure, shortened: as §1

Gal(a1-3)GalNAc = biological target: Gal(a1-3)GalNAc
Procedure, shortened: as §1

[15] = biological target: Gal(a1-3)[Gal(a1-4)]Gal(b1-4)GlcNAc
Procedure, shortened: as §1

[16] = biological target: Gal(a1-4)Gal(b1-3)GlcNAc(b1-2)Man(a1-3)[Gal(a1-4)Gal(b1-3)GlcNAc(b1-2)Man(a1-6)]Man(b1-4)GlcNAc(b1-4)GlcNAc
Procedure, shortened: as §1

Gal(a1-4)Gal(b1-4)Glc = biological target: Gal(a1-4)Gal(b1-4)Glc
Procedure, shortened: as §1

Gal(a1-4)Gal(b1-4)GlcNAc = biological target: Gal(a1-4)Gal(b1-4)GlcNAc
Procedure, shortened: as §1

[17] = biological target: Gal(a1-4)Gal(b1-4)GlcNAc(b1-2)Man(a1-3)[Gal(a1-4)Gal(b1-4)GlcNAc(b1-2)Man(a1-6)]Man(b1-4)GlcNAc(b1-4)GlcNAc
Procedure, shortened: as §1

[18] = biological target: Gal(a1-4)Gal(b1-4)GlcNAc(b1-3)Gal(b1-4)Glc
Procedure, shortened: as §1

Gal(a1-4)GlcNAc = biological target: Gal(a1-4)GlcNAc
Procedure, shortened: as §1

Gal(a1-6)Glc = biological target: Gal(a1-6)Glc
Procedure, shortened: as §1

Gal(b1-2)Gal = biological target: Gal(b1-2)Gal
Procedure, shortened: as §1

Gal(b1-3)Gal = biological target: Gal(b1-3)Gal
Procedure, shortened: as §1

Gal(b1-3)Gal(b1-4)GlcNAc = biological target: Gal(b1-3)Gal(b1-4)GlcNAc
Procedure, shortened: as §1

Gal(b1-3)GalNAc = biological target: Gal(b1-3)GalNAc
Procedure, shortened: as §1

[19] = biological target: Gal(b1-3)GalNAc(a1-3)[Fuc(a1-2)]Gal(b1-4)Glc
Procedure, shortened: as §1

[20] = biological target: Gal(b1-3)GalNAc(a1-3)[Fuc(a1-2)]Gal(b1-4)GlcNAc
Procedure, shortened: as §1

Gal(b1-3)GalNAc(b1-3)Gal = biological target: Gal(b1-3)GalNAc(b1-3)Gal
Procedure, shortened: as §1

B1: OS9 (Arabidopsis thaliana) (protein)
chain: MRGSHHHHHHGMASMTGGQQMGRDLYDDDDKSRLQIFPAHLVGTFSRNNREPKYKIEFLPEDSPFHPGDNLESMVMLDKHGNRFLCYLPKEEKATSGWTSSQQNISTVMMETQQLVKLKTPDELLQPLSEKCLFRQEGWWSYEFCHQKYVRQLHVEDENKIVQEFFLGTFDPEATAAFNQTVSDASTDASQRYHSHVYTNGTTCDLTGSPREVEVRFVCAETRAMVTSITELSTCKYALTVQCPTLCKHPLFQLEKPVSHTIHCNAIPVEEDATRNKEEQAVDESPKMIADS
glycan array binding signal (z-score) [1]: -0.706 | glycan array binding signal (z-score) [2]: 0.056 | glycan array binding signal (z-score) [3]: -0.395 | glycan array binding signal (z-score) (Fuc(a1-4)GlcNAc): -0.533 | glycan array binding signal (z-score) (Fuc(b1-3)GlcNAc): 0.055 | glycan array binding signal (z-score) (Gal(a1-2)Gal): 1.15 | glycan array binding signal (z-score) (Gal(a1-3)Gal): -0.357 | glycan array binding signal (z-score) (Gal(a1-3)Gal(b1-3)GlcNAc): -0.937 | glycan array binding signal (z-score) [4]: -0.727 | glycan array binding signal (z-score) [5]: 2.24 | glycan array binding signal (z-score) [6]: 0.148 | glycan array binding signal (z-score) [7]: -0.704 | glycan array binding signal (z-score) [8]: -0.059 | glycan array binding signal (z-score) (Gal(a1-3)Gal(b1-4)Glc): 0.213 | glycan array binding signal (z-score) (Gal(a1-3)Gal(b1-4)GlcNAc): -0.724 | glycan array binding signal (z-score) [9]: 0.108 | glycan array binding signal (z-score) [10]: 1.3 | glycan array binding signal (z-score) [11]: 0.445 | glycan array binding signal (z-score) [12]: 0.243 | glycan array binding signal (z-score) [13]: -0.188 | glycan array binding signal (z-score) [14]: 0.806 | glycan array binding signal (z-score) (Gal(a1-3)GalNAc): 0.056 | glycan array binding signal (z-score) [15]: -0.966 | glycan array binding signal (z-score) [16]: -0.507 | glycan array binding signal (z-score) (Gal(a1-4)Gal(b1-4)Glc): 2.7 | glycan array binding signal (z-score) (Gal(a1-4)Gal(b1-4)GlcNAc): -0.809 | glycan array binding signal (z-score) [17]: 0.345 | glycan array binding signal (z-score) [18]: -0.893 | glycan array binding signal (z-score) (Gal(a1-4)GlcNAc): 0.179 | glycan array binding signal (z-score) (Gal(a1-6)Glc): -0.61 | glycan array binding signal (z-score) (Gal(b1-2)Gal): -0.865 | glycan array binding signal (z-score) (Gal(b1-3)Gal): 1.8 | glycan array binding signal (z-score) (Gal(b1-3)Gal(b1-4)GlcNAc): -0.25 | glycan array binding signal (z-score) (Gal(b1-3)GalNAc): -0.097 | glycan array binding signal (z-score) [19]: -0.114 | glycan array binding signal (z-score) [20]: -0.716 | glycan array binding signal (z-score) (Gal(b1-3)GalNAc(b1-3)Gal): 3.02
